Test results as given in paper PMC4654411.

Legend:
Experiment in all cases: two-hybrid; GAL4-based: GAL4-BD fusions (pPC97) and GAL4-AD fusions (pPC86) in yeast PJ69-4A; growth on L−W−H− plates at 30 °C for 2–6 days; colorimetric β-galactosidase assay on liquid cultures
[1] = target: GAL4-BD-FlnA-WT (WT-FlnA-1–8,24) (human)
[2] = target: GAL4-BD-FlnA-G288R (G288R-FlnA-1–8,24) (human)
[3] = target: GAL4-BD-FlnA-P637Q (P637Q-FlnA-1–8,24) (human)
[4] = target: GAL4-BD-FlnA-H743P (H743P-FlnA-1–8,24) (human)

- binding [1]: binds
- binding [2]: no binding
- binding [3]: no binding
- binding [4]: no binding
B1: GAL4-AD-PTPN12 (T587-N753 peptide region of PTPN12) (domain or fragment, UniProt Q05209 587-753)
chain: TSPLFRTPLSFTNPLHSDDSDSDERNSDGAVTQNKTNISTASATVSAATSTESISTRKVLPMSIARHNIAGTTHSGAEKDVDVSEDSPPPLPERTPESFVLASEHNTPVRSEWSELQSQERSEQKKSEGLITSENEKCDHPAGGIHYEMCIECPPTFSDKREQISEN

Results are given in words; binding and its absence hold for the method and conditions named. For some of these results: Binding can be weak; no strength is given. Tags and fused reporters may be left off the sequences shown.
